{"source": "paper PMC12040169", "about": "(PLOS Biology, 2025)", "note": "This is one part of the list."}
{"test_system": "T1, CTL2-GFP (C. trachomatis L2/434/Bu, GFP-expressing)", "T1 construct": "L2/434/Bu, GFP-expressing", "parameters": "species or system HeLa; Intracellular C. trachomatis growth in HeLa cells, bulk GFP fluorescence relative to DMSO", "details": "bulk GFP, single well; 28.5 h, 10 µM; inhibitor", "units": {"% of control remaining": "%"}}
{"smiles": "NCCNC(=O)c1ccc(-c2cccc(C(F)(F)F)c2)o1", "note": "[CBK115927C]", "% of control remaining": 150.226}
{"smiles": "Cn1cnnc1SCCNC(=O)N1CCCN(Cc2cccs2)CC1", "note": "[CBK307485]", "% of control remaining": 115.024}
{"smiles": "CC[C@H](C)[C@H](NC(=O)C1CCN(S(=O)(=O)c2ccc(Cl)c(C(F)(F)F)c2)CC1)C(=O)O", "note": "[CBK297117]", "% of control remaining": 129.674}
{"smiles": "NC(=O)c1cccc(-n2cc(-c3ccsc3)nn2)c1", "note": "[CBK113076]", "% of control remaining": 131.145}
{"smiles": "COc1ccc(C(=O)N2CCC3(CCN(C(=O)Cc4cc(C)no4)C3)C2)cc1OC", "note": "(stereo not shown) [CBK131784]", "% of control remaining": 116.595}
{"smiles": "c1csc(C2NN=C3C4CCN(CC4)C32)c1", "note": "(stereo not shown) [CBK021915]", "% of control remaining": 102.66}
{"smiles": "CCCCN(C)c1c(C)nc2c(OCC3CCCCO3)cccn12", "note": "(stereo not shown) [CBK147180]", "% of control remaining": 109.449}
{"smiles": "c1ccc(OCCOc2cccnc2N2CCNCC2)cc1", "note": "[CBK200000C]", "% of control remaining": 119.305}
{"smiles": "CN(Cc1cccc2ncccc12)C(=O)c1cc(C2CC2)nn1C", "note": "[CBK282537]", "% of control remaining": 121.06}
{"smiles": "COc1ccc(C(=O)Nc2ccccc2OC2CCNCC2)cc1", "note": "[CBK050282T]", "% of control remaining": 129.857}
{"smiles": "CC(=O)N1N=C(COc2ccc(C)cc2)OC1c1ccc(Br)cc1", "note": "(stereo not shown) [CBK294396]", "% of control remaining": 135.002}
{"smiles": "CC1CN(C(=O)NC2CC2)C(C)CN1CCCC(c1ccc(F)cc1)c1ccc(F)cc1", "note": "(stereo not shown) [CBK024927C]", "% of control remaining": 106.416}
{"smiles": "O=C(NCCc1cccs1)Nc1cccc(CN2CCCCC2)c1", "note": "[CBK306882]", "% of control remaining": 61.1236}
{"smiles": "O=C(c1cccc(C(F)(F)F)c1)N1CCCCCC1", "note": "[CBK074291]", "% of control remaining": 179.018}
{"smiles": "C/C(=N\\NS(=O)(=O)c1ccc(C)cc1)C(C)(C)CC(=O)O", "note": "[CBK263601]", "% of control remaining": 106.834}
{"smiles": "Cc1nn2c(CN(C(=O)COc3ccccc3)c3ccccc3)nnc2c2ccccc12", "note": "[CBK268036]", "% of control remaining": 117.506}
{"smiles": "Oc1cccc(-c2nccnc2NCc2cccs2)c1", "note": "[CBK037343]", "% of control remaining": 121.299}
{"smiles": "Cc1ccc(C(O)CN2CCC(O)(c3ccc(F)cc3)CC2)cc1", "note": "(stereo not shown) [CBK283309]", "% of control remaining": 135.35}
{"smiles": "CCCNc1nc(Cl)nc(NC(C)(C)C)n1", "note": "[CBK091674]", "% of control remaining": 125.5}
{"smiles": "Cc1ccc(-n2c(SCC(=O)Nc3sc4c(c3C#N)CCCC4)nnc2-c2ccccc2O)c(C)c1", "note": "[CBK268692]", "% of control remaining": 139.963}
{"smiles": "O=C(NCc1ccccc1)c1ccnc2ccccc12", "note": "[CBK200191]", "% of control remaining": 108.443}
{"smiles": "CS(=O)(=O)c1ccc(CN2C[C@@H]3OCC(=O)N(c4ccccc4)[C@@H]3C2)cc1", "note": "[CBK289237]", "% of control remaining": 120.244}
{"smiles": "Oc1ccccc1/C=N/CC(O)C/N=C/c1ccccc1O", "note": "[CBK261112]", "% of control remaining": 110.941}
{"smiles": "O=C(NCCN1CCOCC1)c1cc(-c2ccc(Cl)cc2Cl)nc2ccccc12", "note": "[CBK265379]", "% of control remaining": 124.372}
{"smiles": "COC(=O)c1c(NC(=S)NNC(=O)c2nn(C)c(C)c2Br)sc2c1CCC(C)C2", "note": "(stereo not shown) [CBK267052]", "% of control remaining": 130.968}
{"smiles": "Cc1cccc(C)c1NC(=O)CN(Cc1ccccc1)Cc1cc2ccc(C)c(C)c2[nH]c1=O", "note": "[CBK122696T]", "% of control remaining": 113.17}
{"smiles": "O=C(CN1CCCCC1)NN(Cc1ccccc1)c1ccccc1", "note": "[CBK261521G]", "% of control remaining": 118.72}
{"smiles": "Cc1ccn(CCNC(=O)c2cc3ccc(F)cc3[nH]2)n1", "note": "[CBK283209]", "% of control remaining": 115.734}
{"smiles": "CSc1cc(-c2ccc(Cl)cc2)c(C(=O)O)s1", "note": "[CBK126740]", "% of control remaining": 86.9006}
{"smiles": "O=C(Cn1cnc2c(Cl)cc(Cl)cc2c1=O)N1CCCCCC1", "note": "[CBK305874]", "% of control remaining": 123.943}
{"smiles": "CN(Cc1ccccc1)S(=O)(=O)c1ccc2c(c1)n(C)c(=O)n2C", "note": "[CBK266644]", "% of control remaining": 135.664}
{"smiles": "CSCCCNC(=O)c1ccccc1Nc1cccc(C(F)(F)F)c1", "note": "[CBK149551]", "% of control remaining": 48.1867}
{"smiles": "OC[C@H]1CCCN1c1nc(Br)cn2c(-c3ccccn3)cnc12", "note": "[CBK094394]", "% of control remaining": 125.708}
{"smiles": "CC(C)(C)c1ccnc(N[C@H]2CO[C@H]3[C@@H]2OC[C@@H]3NS(=O)(=O)Cc2ccccc2)n1", "note": "[CBK289521]", "% of control remaining": 127.908}
{"smiles": "CN1CCN(c2nc(-c3ccccc3)cc(-c3ccc(Br)cc3)n2)CC1", "note": "[CBK262774]", "% of control remaining": 107.411}
{"smiles": "CC1(C)CC(=O)C2=C(C1)c1onc(N)c1C2Cc1ccccc1", "note": "(stereo not shown) [CBK269206]", "% of control remaining": 88.1353}
{"smiles": "O=c1c(-c2ccco2)[n+]([O-])c2ccccc2n1OCc1ccccn1", "note": "[CBK266570]", "% of control remaining": 153.624}
{"smiles": "Cc1nc2c(c(=O)[nH]1)CCN(Cc1[nH]c3ccc(F)cc3c1C)C2", "note": "[CBK283996]", "% of control remaining": 112.602}
{"smiles": "O=c1cc(N2CCCC2)cnn1Cc1cscn1", "note": "[CBK304635]", "% of control remaining": 124.487}
{"smiles": "CCCOc1ccc(O)cc1", "note": "[CBK122802]", "% of control remaining": 166.573}
{"smiles": "CSc1nc2ccc3nc(NC(C)=O)sc3c2s1", "note": "[CBK287567]", "% of control remaining": 135.429}
{"smiles": "Sc1nnc(COc2ccccc2)n1/N=C/c1ccncc1", "note": "[CBK265360]", "% of control remaining": 121.907}
{"smiles": "N=C1NC(=O)/C(=C/c2cccc(OCc3cccc4ccccc34)c2)S1", "note": "[CBK263610]", "% of control remaining": 100}
{"smiles": "O=C(c1cc(S(=O)(=O)NCc2ccco2)c(Cl)cc1Cl)N1CCCC1", "note": "[CBK306076]", "% of control remaining": 89.5509}
{"smiles": "Nc1ncnc2c1nc1n2[C@@H]2O[C@@H]([C@H](O)C2O)[C@H]1O", "note": "(stereo partly shown) [CBK201305]", "% of control remaining": 146.572}
{"smiles": "O=c1[nH]c(=O)c2cc(S(=O)(=O)N3CCCC(c4ccccc4)C3)ccc2[nH]1", "note": "(stereo not shown) [CBK286381]", "% of control remaining": 114.439}
{"smiles": "CC1(c2ccccc2)CC(C)(C)N(C(=O)CSc2nc3ccccc3o2)c2ccccc21", "note": "(stereo not shown) [CBK262466]", "% of control remaining": 106.226}
{"smiles": "Fc1cccc(N2CCN(Cc3ccccc3)CC2)n1", "note": "[CBK000144]", "% of control remaining": 123.291}
{"smiles": "CC1=CC(C)(C)N(CC(=O)c2ccc([N+](=O)[O-])cc2)c2c(C)cccc21", "note": "[CBK261652]", "% of control remaining": 98.3796}
{"smiles": "NS(=O)(=O)c1ccc(CCNC(=O)c2ccc(-c3ccccc3)nc2NCCc2ccccn2)cc1", "note": "[CBK076616]", "% of control remaining": 206.58}
{"smiles": "Nc1nnc(C(=O)c2cc(Br)ccc2N)s1", "note": "[CBK009811]", "% of control remaining": 127.748}
{"smiles": "COc1cc(C(=O)Nc2ncccc2OCCCC#N)ccc1C", "note": "[CBK304568]", "% of control remaining": 117.975}
{"smiles": "Cc1ccc(N(Cc2ccco2)C(=O)c2cccc(S(=O)(=O)N(C)C)c2)cc1", "note": "[CBK267578]", "% of control remaining": 133.77}
{"smiles": "O=C(CN1C(=O)N2CCN=C2c2ccccc21)N1CCCC1", "note": "[CBK283945]", "% of control remaining": 150.619}
{"smiles": "COc1ccc(-n2nc3ccc(NC(=O)c4sc5ccccc5c4Cl)cc3n2)cc1Cl", "note": "[CBK264633]", "% of control remaining": 130.767}
{"smiles": "O=C(NCC(c1ccco1)N1CCCC1)N1CCc2ccccc2C1", "note": "(stereo not shown) [CBK304392]", "% of control remaining": 119.553}
{"smiles": "CN1CCN(c2snnc2CO)CC1", "note": "[CBK025626]", "% of control remaining": 135.245}
{"smiles": "C=CCn1c(SCC(=O)N2CCN(c3ccccc3)CC2)nnc1-c1ccc(N)cc1", "note": "[CBK267956]", "% of control remaining": 120.212}
{"smiles": "CN(C)CCN1C(=O)C(O)=C(C(=O)c2ccc(S(=O)(=O)N3CCOCC3)cc2)C1c1ccccc1", "note": "(stereo not shown) [CBK264668]", "% of control remaining": 100}
{"smiles": "CN(C(=O)CN1CCN(c2cc(-c3ccsc3)ncn2)CC1)c1ccccc1", "note": "[CBK091129]", "% of control remaining": 216.202}
{"smiles": "O=C(N/N=C/c1cc(Br)c(Br)o1)c1cccc(F)c1", "note": "[CBK261688]", "% of control remaining": 69.215}
{"smiles": "CCn1c(=O)n(CC(=O)N2C(C)CCCC2C)c2cccnc21", "note": "(stereo not shown) [CBK283825]", "% of control remaining": 120.765}
{"smiles": "CC(C)Nc1cncc(OCc2ccc(Cl)c(Cl)c2)n1", "note": "[CBK115653]", "% of control remaining": 113.602}
{"smiles": "COC(=O)CNC(=O)c1cc(-c2ccc(C)s2)nc2c1cnn2C(C)C", "note": "[CBK305040]", "% of control remaining": 114.997}
{"smiles": "Fc1cc(Cl)ccc1NC(=S)NCCN1CCOCC1", "note": "[CBK268441]", "% of control remaining": 128.947}
{"smiles": "COc1cc(C=C2C(=O)OC(C)(C(C)(C)C)OC2=O)cc(Br)c1OC", "note": "(stereo not shown) [CBK028893]", "% of control remaining": 96.918}
{"smiles": "CC(C)CCNCc1ccc(-c2cn(CC(=O)NCc3ccc(C(F)(F)F)cc3)cn2)cc1", "note": "[CBK165976]", "% of control remaining": 127.692}
{"smiles": "CCC(C)(C)c1ccc(S(=O)(=O)N2CCN(Cc3cccc4cccnc34)CC2)cc1", "note": "[CBK062830]", "% of control remaining": 77.3576}
{"smiles": "c1coc(CNc2cncc(-c3cccc4ccccc34)n2)c1", "note": "[CBK065573]", "% of control remaining": 76.8314}
{"smiles": "O=C(Nc1ccc2oc(-c3cccnc3)nc2c1)c1cc([N+](=O)[O-])ccc1N1CCOCC1", "note": "[CBK268674]", "% of control remaining": 135.684}
{"smiles": "COc1ccc(C(C)C)cc1-c1cnc(N)c(NC2CCCCC2)n1", "note": "[CBK063618]", "% of control remaining": 113.077}
{"smiles": "COc1ccc(Cl)cc1NC(=O)CN(C1CCCCC1)S(=O)(=O)c1ccccc1", "note": "[CBK265159]", "% of control remaining": 94.5598}
{"smiles": "Cc1ccc(/C=C/C(=O)O)cc1S(=O)(=O)NCC1CCCO1", "note": "(stereo not shown) [CBK287267]", "% of control remaining": 151.168}
{"smiles": "COCCCn1c(=O)[nH]c2ncc(-c3cccc(OC)c3)nc21", "note": "[CBK064519]", "% of control remaining": 80.8112}
{"smiles": "CCOC(=O)COc1ccc(/C=C2/SC(=S)N(c3cccc(C(=O)O)c3)C2=O)cc1", "note": "[CBK265632]", "% of control remaining": 100}
{"smiles": "CC1CCc2n[nH]c(C(=O)NC3CN4CCC3CC4)c2C1", "note": "(stereo not shown) [CBK283193]", "% of control remaining": 117.598}
{"smiles": "CCN(C(=O)c1cnccn1)C(CC1CCCCC1)c1ccccc1", "note": "(stereo not shown) [CBK061638]", "% of control remaining": 105.847}
{"smiles": "N#Cc1sc(N)c2ccc(-c3ccncc3)nc12", "note": "[CBK019761]", "% of control remaining": 107.449}
{"smiles": "Cc1noc(C)c1C(=O)N(C)CC(=O)Nc1ccc(Cl)c(C(F)(F)F)c1", "note": "[CBK295363]", "% of control remaining": 161.486}
